PubChem BioAssay AID602196, INSERM | 2012
Shown is one part, drawn at random, of about 23,000 reagents tested. Of all reagents, 455 (2%) are marked active. 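Active includes both protection and sensitisation; some change values fall well beyond the stated -50 to +50 range.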 Unmarked entries are inactive. Further read-outs or replicates are left out here. Not stated in the record: the amount of reagent.

- Assay: 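Knock-downs that protect lung cancer cells from cisplatin or sensitise them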
- Cell system: human A549 lung cancer cells
- Knock-down reagent: siRNA pair against human genes
- Duration: 48 h transfection before cisplatin; time from cisplatin to read-out not stated
- Conditions: cisplatin at a dose killing half of control-siRNA cells; exact dose and duration not given
- Read-out: 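Cisplatin cell death as a shift from the 50% death seen with control siRNA; siRNAs toxic or growth-blocking alone scored 0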
- Direction: two-siRNA summed score (-2 to +2): higher = both siRNAs protect from cisplatin killing; -2 means both sensitise; mean protection from cisplatin (shift in death): higher = protection from cisplatin killing
- Hit rule: 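Each siRNA scores 0 if harmful alone by LDH or WST-1, otherwise +1 if it reduces and -1 if it increases cisplatin killing; a gene is active when both siRNAs agree (sum +2 or -2)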
- Meaning of the calls: active = both siRNAs shift cisplatin killing the same way; inactive = no consistent shift, or siRNA harmful alone

The opening 3 entries, to show the layout:
target gene | two-siRNA summed score (-2 to +2) | mean protection from cisplatin (shift in death) (%)
ZNF454 | 0 | 3.5
CLDN11 | 1 | 12.1
LOC442084 | 1 | 19.7

The list itself, from the first entry:
target gene | two-siRNA summed score (-2 to +2) | mean protection from cisplatin (shift in death) (%)
ZNF454 | 0 | 3.5
CLDN11 | 1 | 12.1
LOC442084 | 1 | 19.7
AURKC | 1 | 6.9
GUCY1A1 | -1 | -10.2
PXT1 | 0 | -0.6
ZC3H12A | 0 | 2.7
YTHDC1 | 0 | -6.9
CRHR2 | -1 | -13.4
ATL1 | -1 | -20.6
LOC441549 | 0 | 11.2
UGT1A10 | 0 | -0.4
COMMD6 | 0 | 9.4
EDA2R | 0 | 9.3
SCN4B | 1 | -4.4
FRS3 | -1 | -19.1
WDR54 | 1 | 20.1
DHX36 | 0 | 10.3
GPER1 | 0 | 2.3
TMEM50A | 0 | 0.3
LOC400644 | 0 | -5.7
GIPR | -1 | -8.9
CHML | 1 | 12.9
LOC284067 | 0 | 7
LOC441364 | 0 | 9.6
LOC401504 | 0 | 15.6
CALHM3 | 0 | 1
LOC442563 | 0 | 6.4
KRTAP11-1 | 0 | 4.8
KIR2DL1 | 0 | 11.8
LOC440402 | 0 | 8.8
MMP9 | -1 | -26.7
GPRASP3 | 0 | -4.2
DKFZp761D1918 | 0 | 4.6
AP2B1 | -1 | -6
GATAD2A | 0 | -7.7
LOC130500 | 1 | 17
LOC221875 | 1 | 22.6
SERPINA5 | 1 | 6
BUD23 | 0 | -4.2
LOC401101 | 0 | -2.1
ACTA1 | 0 | 11.1
NME8 | 0 | -4.9
OR2T6 | 0 | 0.2
RTL5 | 0 | 5.7
S100G | 1 | 11.4
LOC441797 | 0 | 15.2
ABCG1 | 0 | 4.1
ACTL9 | 1 | 15
NEURL2 | 0 | -1.8
LOC391692 | 1 | 0.4
GUCA1C | 1 | 9.5
SART1 | 0 | 1.5
QTMAN | 0 | 11.2
MRPS2 | 0 | 2.3
LOC284288 | 1 | 16.2
SIGLEC6 | 1 | 19.6
